Reference: PubChem BioAssay AID686937 (Drosophila RNAi Screening Center, 2013)
The deposit covers about 23,000 reagents; this is a random part of those that have a named target and a result. 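Reduced-secretion tags in replicate 1 do not always agree with the z-scores; no criterion for assigning the tags was given.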 The numbers tell different reagents against one gene apart. Names joined by + are all predicted targets of the reagent. No sequences are given here. Not given: the amount of reagent.

- Test: 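Genes in the fly needed for secretion of protein constitutively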 (primary screen)
- Cell system: Drosophila S2 cells expressing secreted horseradish peroxidase
- Reagent: long dsRNA against Drosophila genes
- Duration: about 5.5 days (5 days dsRNA, then 12 h reporter induction)
- Conditions: reporter expression induced after 5 days of dsRNA, read 12 h later; inducer not stated
- Detection: 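Chemiluminescent measurement of peroxidase in the medium 12 h after reporter induction, following 5 days of dsRNA, given as a z-score per plate; higher means more secretion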
- Reading the numbers: z-score: higher = more reporter secreted into medium

| z-score, replicate 1 | z-score, replicate 2 | z-score, replicate 3 | z-score, replicate 4 | phenotype, replicate 1 | gene knocked down | reagent |
| --- | --- | --- | --- | --- | --- | --- |
| 0.04 | 0.16 | – | – | – | CG43446 (GeneID 12798498) | 1 |
| 0.09 | 0.19 | 0.35 | 0.38 | – | CG12170 (GeneID 40692) | 1 |
| 0.09 | 0.26 | – | – | – | CG3437 (GeneID 39096) | 1 |
| 0.06 | -0.02 | – | – | – | tous (GeneID 37582) | 1 |
| 0.59 | 0.72 | – | – | – | CG5665 (GeneID 40243) | 1 |
| 0.52 | 0.21 | – | – | – | CG7099 (GeneID 34753) | 1 |
| 0.05 | 0.12 | – | – | – | CG15170 (GeneID 35160) | 1 |
| -1.54 | -0.75 | – | – | reduced secretion | Bap60 (GeneID 32268) | 1 |
| 0.15 | 0.06 | – | – | – | CG13170 (GeneID 36325) | 1 |
| 0.21 | 0.02 | – | – | – | Kul (GeneID 43501) | 1 |
| 0.63 | 0.43 | – | – | – | Tsc1 (GeneID 42862) | 1 |
| 0.18 | 0.27 | – | – | – | CG14710 (GeneID 41393) | 1 |
| 0.12 | 0.16 | – | – | – | Jabba (GeneID 37164) | 1 |
| 0.36 | 0.44 | – | – | – | CG14692 (GeneID 41298) | 1 |
| 0.43 | 0.42 | – | – | – | Dcps (GeneID 40711) | 1 |
| 0.2 | 0.38 | – | – | – | Gpdh3 (GeneID 42624) | 1 |
| 0.19 | 0.25 | – | – | – | CG7791 (GeneID 35511) | 1 |
| 0.04 | 0.09 | – | – | – | Bdbt (GeneID 42503) | 1 |
| 0.12 | 0.21 | – | – | – | Mcm10 (GeneID 35390) | 1 |
| -0.18 | -0.21 | – | – | – | CG3770 (GeneID 37991) | 1 |
| 0.55 | 0.3 | – | – | – | CG34462 (GeneID 5740319) | 1 |
| 0.01 | -0.12 | – | – | – | cal1 (GeneID 42065) | 1 |
| -2.22 | -1.39 | – | – | reduced secretion | Gld2 (GeneID 42602) | 1 |
| 0.21 | 0.34 | – | – | – | CG8584 (GeneID 35856) | 1 |
| -0.09 | 0.08 | – | – | – | CG1971 (GeneID 43755) | 1 |
| -0.42 | 0.26 | – | – | – | CG40485 (GeneID 3355165) | 1 |
| 0.45 | 0.26 | 0.34 | 0.26 | – | CG4968 (GeneID 34384) | 1 |
| -2.23 | -1.15 | – | – | reduced secretion | rudhira (GeneID 32136) | 1 |
| 0.34 | 0.26 | – | – | – | rudhira (GeneID 32136) | 2 |
| -0.16 | 0.42 | – | – | – | CG7294 (GeneID 34470) | 1 |
| 0.13 | -0.53 | – | – | – | CG9300 (GeneID 40128) | 1 |
| 0.18 | -0.03 | – | – | – | Rab9Db + Rab9D + Rab9E | 1 |
| 0.78 | 0.18 | – | – | – | shn (GeneID 36171) | 1 |
| 0.24 | 0.29 | – | – | – | shn (GeneID 36171) | 2 |
| 0.17 | 0.34 | – | – | – | CG12483 (GeneID 50161) | 1 |
| 0.7 | 0.38 | – | – | – | mus201 + Chrac-14 | 1 |
| 0.44 | 0.13 | – | – | – | mus201 + Chrac-14 | 2 |
| 0.2 | 0.28 | – | – | – | CG6465 (GeneID 41274) | 1 |
| -1.12 | -1.48 | – | – | – | CG8135 + BBIP1 | 1 |
| 0.41 | 0.72 | – | – | – | CG8135 + BBIP1 | 2 |
| -2.63 | -0.85 | – | – | reduced secretion | eIF3f1 (GeneID 40587) | 1 |
| 0.68 | -0.64 | – | – | – | EbpIII (GeneID 49821) | 1 |
| 0.24 | 0.3 | – | – | – | CG4377 (GeneID 37489) | 1 |
| 0.04 | 0.25 | – | – | – | CG42323 (GeneID 32825) | 1 |
| 0.25 | 0.36 | – | – | – | CG42323 (GeneID 32825) | 2 |
| 0.36 | 0.3 | – | – | – | CG42329 (GeneID 33312) | 1 |
| 0.12 | -0.01 | – | – | – | CG42329 (GeneID 33312) | 2 |
| 0.18 | 0.41 | -0.03 | -0.17 | – | CG3253 (GeneID 37861) | 1 |
| 0.31 | 0.5 | – | – | – | CG33181 (GeneID 318916) | 1 |
| 0.06 | 0.46 | – | – | – | CG33181 (GeneID 318916) | 2 |
| 0.59 | 0.67 | – | – | – | lncRNA:CR43493 + l(1)G0196 | 1 |
| 0.49 | 0.49 | – | – | – | CG14421 (GeneID 31285) | 1 |
| 0.02 | 1.22 | – | – | – | asRNA:Eig63F-2 + Eip63F-1 | 1 |
| 0.45 | 0.3 | – | – | – | CG2938 (GeneID 31347) | 1 |
| 0.36 | 0.2 | – | – | – | CG30395 (GeneID 246589) | 1 |
| 0.14 | 0.1 | – | – | – | Cyfip (GeneID 41861) | 1 |

4 entries from above, limited to “z-score, replicate 2”.
eIF3f1 (GeneID 40587) = -0.85
EbpIII (GeneID 49821) = -0.64
CG4377 (GeneID 37489) = 0.3
CG42323 (GeneID 32825) #1 = 0.25
